PubChem BioAssay AID686937 – Drosophila RNAi Screening Center, 2013
Purpose: 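Knock-downs that reduce output of a secreted reporter enzyme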 (primary screen). Cell system: Drosophila S2 cells expressing secreted horseradish peroxidase. Reagents: long dsRNA against Drosophila genes. Duration: about 5.5 days (5 days dsRNA, then 12 h reporter induction). Treatment: reporter expression induced after 5 days of dsRNA, read 12 h later; inducer not stated. Read-out: 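After 5 days of dsRNA and 12 h of reporter induction, medium peroxidase read by chemiluminescence and scored as per-plate z-score; higher values mean more reporter released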. Scale: z-score: higher = more reporter secreted into medium.
The screen tested about 23,000 reagents; below is an unselected part of those that have a named target and a result. 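Reduced-secretion tags in replicate 1 do not always agree with the z-scores; no criterion for assigning the tags was given.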 The numbers tell different reagents against one gene apart. Names joined by + are all predicted targets of the reagent. The record does not give: the amount of reagent.

gene knocked down | reagent no. | z-score, replicate 1 | z-score, replicate 2 | z-score, replicate 3 | z-score, replicate 4 | phenotype, replicate 1
dpr1 | 1 | 0.58 | 0.34 | – | – | –
dpr1 | 2 | 0.4 | 0.3 | – | – | –
CG11247 | 1 | -4.29 | 0.35 | 0.36 | -1.18 | –
CG11247 | 2 | 0.56 | 0.23 | – | – | –
CG31111 | 1 | -0.34 | -1.38 | – | – | –
Pgant1 | 1 | 0.36 | -0.01 | – | – | –
CG12498 | 1 | 0.32 | 0.35 | – | – | –
CG7320 | 1 | 0.29 | 0.17 | – | – | –
CG10591 | 1 | 0.53 | 0.51 | – | – | –
CG13097 | 1 | -0.36 | 0.2 | – | – | –
ana3 | 1 | 0.33 | 0.29 | – | – | –
CG17036 | 1 | 0.49 | 0.3 | – | – | –
Tpi | 1 | 0.39 | 0.49 | – | – | –
CG17738 | 1 | 0.35 | 0.78 | – | – | –
Rat1 | 1 | -0.14 | 0.25 | – | – | –
CG11726 | 1 | 0.52 | 0.44 | – | – | –
shrb | 1 | -2.56 | -1.65 | – | – | reduced secretion
lmgA + lmgB | 1 | 0.3 | 0.24 | – | – | –
CG3829 | 1 | 0.23 | 0.35 | – | – | –
CG14573 | 1 | 0.25 | 0.27 | – | – | –
Cyp12e1 | 1 | 0.2 | 0.34 | – | – | –
CG14259 | 1 | 0.33 | 0.04 | – | – | –
CG1965 | 1 | -0.1 | 0.33 | 0.39 | 0.37 | –
CG1965 | 2 | 1.97 | 1.05 | – | – | –
CG15614 | 1 | 0.35 | 0.14 | – | – | –
Dnaaf4 | 1 | 0.35 | 0.16 | – | – | –
mol | 1 | -1.58 | 0.86 | -0.9 | 0.61 | reduced secretion
mol | 2 | 0.49 | 0.46 | – | – | –
mol | 3 | -9.56 | -0.02 | – | – | reduced secretion
Gcn5 | 1 | 0.24 | -0.05 | – | – | –
KP78a + KP78b | 1 | 0.33 | 0.42 | – | – | –
KP78a + KP78b | 2 | 0.13 | 0.3 | – | – | –
janB | 1 | 0.2 | 0.33 | – | – | –
CG10969 | 1 | -0.77 | -0.37 | – | – | –
Tsf3 | 1 | 0.36 | 0.15 | – | – | –
CG10907 | 1 | 0.18 | 0.32 | – | – | –
RhoGDI | 1 | 0.22 | 0.37 | – | – | –
CG14974 | 1 | -0.02 | -0.06 | – | – | –
SMC2 | 1 | 0.23 | 0.06 | – | – | –
bun | 1 | -0.02 | -0.28 | – | – | –
bun | 2 | -0.13 | 0.1 | – | – | –
bun | 3 | -5.66 | -3.48 | – | – | reduced secretion
CG14219 | 1 | 0.61 | 0.16 | – | – | –
TRAM | 1 | 0.32 | 0.43 | – | – | –
TRAM | 2 | 0.16 | 0.23 | – | – | –
Trax | 1 | 0.4 | 0.18 | – | – | –
GC2 | 1 | -0.1 | 0.15 | – | – | –
Rpt6 | 1 | 0.17 | 0.48 | – | – | –
Kr-h2 | 1 | 0.11 | 0.06 | – | – | –
egh | 1 | -0.68 | 0.54 | – | – | –
Hug | 1 | 0.36 | 0.45 | – | – | –
CG12112 | 1 | 0.14 | 0.48 | – | – | –
CG34030 | 1 | 0.48 | 0.29 | – | – | –
Thor | 1 | 0.24 | 0.39 | – | – | –
Cyp6d2 | 1 | -3.14 | 0.25 | 0.39 | -1.67 | –
CG14234 | 1 | 0 | 0.51 | – | – | –
CG14234 | 2 | 0.15 | 0.27 | – | – | –
CG32507 | 1 | 0.21 | 0.25 | 0.06 | -0.18 | –
pit | 1 | -1.7 | -0.32 | – | – | reduced secretion
pit | 2 | -0.07 | -0.32 | – | – | –
conv | 1 | 0.09 | 0.3 | – | – | –
trol | 1 | 0.46 | 0.49 | – | – | –
trol | 2 | -2.53 | 0.57 | – | – | reduced secretion
trol | 3 | 0.18 | 0.33 | – | – | –
trol | 4 | 0.23 | 0.26 | – | – | –
CG2519 | 1 | 0.28 | 0.28 | – | – | –
Ufd4 | 1 | -0.13 | 0.03 | – | – | –
etaTry | 1 | 0.21 | 0.13 | – | – | –
CG10324 | 1 | -2.4 | -1.12 | – | – | reduced secretion
sdk | 1 | 0.4 | 0.03 | – | – | –
CG33978 | 1 | 0.8 | 0.05 | – | – | –
mRpL13 | 1 | 0.49 | 0.12 | – | – | –
DIP-epsilon | 1 | 0.7 | 0.45 | 0.14 | 0.73 | –
DIP-epsilon | 2 | 0.05 | -0.44 | – | – | –
mRpL16 | 1 | 0.5 | 0.56 | – | – | –
Dcr-1 | 1 | 0.05 | 0.16 | – | – | –
CG32588 | 1 | -0.68 | -0.21 | – | – | –
Sap130 | 1 | -0.82 | -0.69 | – | – | –
CG15254 | 1 | -0.02 | 0.64 | 0.24 | 0.11 | –
CG15254 | 2 | -0.38 | -1.01 | – | – | reduced secretion
CG1138 | 1 | 0.2 | 0.37 | – | – | –
CG31269 | 1 | 0 | 0.16 | – | – | –

Individual results from above.
trol #1, z-score, replicate 1 = 0.46
Result of CG3829 in “z-score, replicate 2”: 0.35
For “z-score, replicate 2”, CG14234 #1 shows 0.51
Entry for CG1965 #1 under “z-score, replicate 2”: 0.33
Result of TRAM #2 under “z-score, replicate 1”: 0.16
